Measured values from patent US20190270997A1.
No constants are given. Whether binding was seen depends on the method and setting. In cells and extracts the contact can be indirect. Some binding calls cover weakened binding; strength is not graded here.

The chains behind the UniProt entries cited, without tags or fusion partners. Where a name states a change or a piece, a line headed by the entry shows the natural chain unless it says otherwise. A line that says so, or that is headed by a name, gives the form on record, which may keep a tag or linker. Residues count along the entry.
UniProt O14686: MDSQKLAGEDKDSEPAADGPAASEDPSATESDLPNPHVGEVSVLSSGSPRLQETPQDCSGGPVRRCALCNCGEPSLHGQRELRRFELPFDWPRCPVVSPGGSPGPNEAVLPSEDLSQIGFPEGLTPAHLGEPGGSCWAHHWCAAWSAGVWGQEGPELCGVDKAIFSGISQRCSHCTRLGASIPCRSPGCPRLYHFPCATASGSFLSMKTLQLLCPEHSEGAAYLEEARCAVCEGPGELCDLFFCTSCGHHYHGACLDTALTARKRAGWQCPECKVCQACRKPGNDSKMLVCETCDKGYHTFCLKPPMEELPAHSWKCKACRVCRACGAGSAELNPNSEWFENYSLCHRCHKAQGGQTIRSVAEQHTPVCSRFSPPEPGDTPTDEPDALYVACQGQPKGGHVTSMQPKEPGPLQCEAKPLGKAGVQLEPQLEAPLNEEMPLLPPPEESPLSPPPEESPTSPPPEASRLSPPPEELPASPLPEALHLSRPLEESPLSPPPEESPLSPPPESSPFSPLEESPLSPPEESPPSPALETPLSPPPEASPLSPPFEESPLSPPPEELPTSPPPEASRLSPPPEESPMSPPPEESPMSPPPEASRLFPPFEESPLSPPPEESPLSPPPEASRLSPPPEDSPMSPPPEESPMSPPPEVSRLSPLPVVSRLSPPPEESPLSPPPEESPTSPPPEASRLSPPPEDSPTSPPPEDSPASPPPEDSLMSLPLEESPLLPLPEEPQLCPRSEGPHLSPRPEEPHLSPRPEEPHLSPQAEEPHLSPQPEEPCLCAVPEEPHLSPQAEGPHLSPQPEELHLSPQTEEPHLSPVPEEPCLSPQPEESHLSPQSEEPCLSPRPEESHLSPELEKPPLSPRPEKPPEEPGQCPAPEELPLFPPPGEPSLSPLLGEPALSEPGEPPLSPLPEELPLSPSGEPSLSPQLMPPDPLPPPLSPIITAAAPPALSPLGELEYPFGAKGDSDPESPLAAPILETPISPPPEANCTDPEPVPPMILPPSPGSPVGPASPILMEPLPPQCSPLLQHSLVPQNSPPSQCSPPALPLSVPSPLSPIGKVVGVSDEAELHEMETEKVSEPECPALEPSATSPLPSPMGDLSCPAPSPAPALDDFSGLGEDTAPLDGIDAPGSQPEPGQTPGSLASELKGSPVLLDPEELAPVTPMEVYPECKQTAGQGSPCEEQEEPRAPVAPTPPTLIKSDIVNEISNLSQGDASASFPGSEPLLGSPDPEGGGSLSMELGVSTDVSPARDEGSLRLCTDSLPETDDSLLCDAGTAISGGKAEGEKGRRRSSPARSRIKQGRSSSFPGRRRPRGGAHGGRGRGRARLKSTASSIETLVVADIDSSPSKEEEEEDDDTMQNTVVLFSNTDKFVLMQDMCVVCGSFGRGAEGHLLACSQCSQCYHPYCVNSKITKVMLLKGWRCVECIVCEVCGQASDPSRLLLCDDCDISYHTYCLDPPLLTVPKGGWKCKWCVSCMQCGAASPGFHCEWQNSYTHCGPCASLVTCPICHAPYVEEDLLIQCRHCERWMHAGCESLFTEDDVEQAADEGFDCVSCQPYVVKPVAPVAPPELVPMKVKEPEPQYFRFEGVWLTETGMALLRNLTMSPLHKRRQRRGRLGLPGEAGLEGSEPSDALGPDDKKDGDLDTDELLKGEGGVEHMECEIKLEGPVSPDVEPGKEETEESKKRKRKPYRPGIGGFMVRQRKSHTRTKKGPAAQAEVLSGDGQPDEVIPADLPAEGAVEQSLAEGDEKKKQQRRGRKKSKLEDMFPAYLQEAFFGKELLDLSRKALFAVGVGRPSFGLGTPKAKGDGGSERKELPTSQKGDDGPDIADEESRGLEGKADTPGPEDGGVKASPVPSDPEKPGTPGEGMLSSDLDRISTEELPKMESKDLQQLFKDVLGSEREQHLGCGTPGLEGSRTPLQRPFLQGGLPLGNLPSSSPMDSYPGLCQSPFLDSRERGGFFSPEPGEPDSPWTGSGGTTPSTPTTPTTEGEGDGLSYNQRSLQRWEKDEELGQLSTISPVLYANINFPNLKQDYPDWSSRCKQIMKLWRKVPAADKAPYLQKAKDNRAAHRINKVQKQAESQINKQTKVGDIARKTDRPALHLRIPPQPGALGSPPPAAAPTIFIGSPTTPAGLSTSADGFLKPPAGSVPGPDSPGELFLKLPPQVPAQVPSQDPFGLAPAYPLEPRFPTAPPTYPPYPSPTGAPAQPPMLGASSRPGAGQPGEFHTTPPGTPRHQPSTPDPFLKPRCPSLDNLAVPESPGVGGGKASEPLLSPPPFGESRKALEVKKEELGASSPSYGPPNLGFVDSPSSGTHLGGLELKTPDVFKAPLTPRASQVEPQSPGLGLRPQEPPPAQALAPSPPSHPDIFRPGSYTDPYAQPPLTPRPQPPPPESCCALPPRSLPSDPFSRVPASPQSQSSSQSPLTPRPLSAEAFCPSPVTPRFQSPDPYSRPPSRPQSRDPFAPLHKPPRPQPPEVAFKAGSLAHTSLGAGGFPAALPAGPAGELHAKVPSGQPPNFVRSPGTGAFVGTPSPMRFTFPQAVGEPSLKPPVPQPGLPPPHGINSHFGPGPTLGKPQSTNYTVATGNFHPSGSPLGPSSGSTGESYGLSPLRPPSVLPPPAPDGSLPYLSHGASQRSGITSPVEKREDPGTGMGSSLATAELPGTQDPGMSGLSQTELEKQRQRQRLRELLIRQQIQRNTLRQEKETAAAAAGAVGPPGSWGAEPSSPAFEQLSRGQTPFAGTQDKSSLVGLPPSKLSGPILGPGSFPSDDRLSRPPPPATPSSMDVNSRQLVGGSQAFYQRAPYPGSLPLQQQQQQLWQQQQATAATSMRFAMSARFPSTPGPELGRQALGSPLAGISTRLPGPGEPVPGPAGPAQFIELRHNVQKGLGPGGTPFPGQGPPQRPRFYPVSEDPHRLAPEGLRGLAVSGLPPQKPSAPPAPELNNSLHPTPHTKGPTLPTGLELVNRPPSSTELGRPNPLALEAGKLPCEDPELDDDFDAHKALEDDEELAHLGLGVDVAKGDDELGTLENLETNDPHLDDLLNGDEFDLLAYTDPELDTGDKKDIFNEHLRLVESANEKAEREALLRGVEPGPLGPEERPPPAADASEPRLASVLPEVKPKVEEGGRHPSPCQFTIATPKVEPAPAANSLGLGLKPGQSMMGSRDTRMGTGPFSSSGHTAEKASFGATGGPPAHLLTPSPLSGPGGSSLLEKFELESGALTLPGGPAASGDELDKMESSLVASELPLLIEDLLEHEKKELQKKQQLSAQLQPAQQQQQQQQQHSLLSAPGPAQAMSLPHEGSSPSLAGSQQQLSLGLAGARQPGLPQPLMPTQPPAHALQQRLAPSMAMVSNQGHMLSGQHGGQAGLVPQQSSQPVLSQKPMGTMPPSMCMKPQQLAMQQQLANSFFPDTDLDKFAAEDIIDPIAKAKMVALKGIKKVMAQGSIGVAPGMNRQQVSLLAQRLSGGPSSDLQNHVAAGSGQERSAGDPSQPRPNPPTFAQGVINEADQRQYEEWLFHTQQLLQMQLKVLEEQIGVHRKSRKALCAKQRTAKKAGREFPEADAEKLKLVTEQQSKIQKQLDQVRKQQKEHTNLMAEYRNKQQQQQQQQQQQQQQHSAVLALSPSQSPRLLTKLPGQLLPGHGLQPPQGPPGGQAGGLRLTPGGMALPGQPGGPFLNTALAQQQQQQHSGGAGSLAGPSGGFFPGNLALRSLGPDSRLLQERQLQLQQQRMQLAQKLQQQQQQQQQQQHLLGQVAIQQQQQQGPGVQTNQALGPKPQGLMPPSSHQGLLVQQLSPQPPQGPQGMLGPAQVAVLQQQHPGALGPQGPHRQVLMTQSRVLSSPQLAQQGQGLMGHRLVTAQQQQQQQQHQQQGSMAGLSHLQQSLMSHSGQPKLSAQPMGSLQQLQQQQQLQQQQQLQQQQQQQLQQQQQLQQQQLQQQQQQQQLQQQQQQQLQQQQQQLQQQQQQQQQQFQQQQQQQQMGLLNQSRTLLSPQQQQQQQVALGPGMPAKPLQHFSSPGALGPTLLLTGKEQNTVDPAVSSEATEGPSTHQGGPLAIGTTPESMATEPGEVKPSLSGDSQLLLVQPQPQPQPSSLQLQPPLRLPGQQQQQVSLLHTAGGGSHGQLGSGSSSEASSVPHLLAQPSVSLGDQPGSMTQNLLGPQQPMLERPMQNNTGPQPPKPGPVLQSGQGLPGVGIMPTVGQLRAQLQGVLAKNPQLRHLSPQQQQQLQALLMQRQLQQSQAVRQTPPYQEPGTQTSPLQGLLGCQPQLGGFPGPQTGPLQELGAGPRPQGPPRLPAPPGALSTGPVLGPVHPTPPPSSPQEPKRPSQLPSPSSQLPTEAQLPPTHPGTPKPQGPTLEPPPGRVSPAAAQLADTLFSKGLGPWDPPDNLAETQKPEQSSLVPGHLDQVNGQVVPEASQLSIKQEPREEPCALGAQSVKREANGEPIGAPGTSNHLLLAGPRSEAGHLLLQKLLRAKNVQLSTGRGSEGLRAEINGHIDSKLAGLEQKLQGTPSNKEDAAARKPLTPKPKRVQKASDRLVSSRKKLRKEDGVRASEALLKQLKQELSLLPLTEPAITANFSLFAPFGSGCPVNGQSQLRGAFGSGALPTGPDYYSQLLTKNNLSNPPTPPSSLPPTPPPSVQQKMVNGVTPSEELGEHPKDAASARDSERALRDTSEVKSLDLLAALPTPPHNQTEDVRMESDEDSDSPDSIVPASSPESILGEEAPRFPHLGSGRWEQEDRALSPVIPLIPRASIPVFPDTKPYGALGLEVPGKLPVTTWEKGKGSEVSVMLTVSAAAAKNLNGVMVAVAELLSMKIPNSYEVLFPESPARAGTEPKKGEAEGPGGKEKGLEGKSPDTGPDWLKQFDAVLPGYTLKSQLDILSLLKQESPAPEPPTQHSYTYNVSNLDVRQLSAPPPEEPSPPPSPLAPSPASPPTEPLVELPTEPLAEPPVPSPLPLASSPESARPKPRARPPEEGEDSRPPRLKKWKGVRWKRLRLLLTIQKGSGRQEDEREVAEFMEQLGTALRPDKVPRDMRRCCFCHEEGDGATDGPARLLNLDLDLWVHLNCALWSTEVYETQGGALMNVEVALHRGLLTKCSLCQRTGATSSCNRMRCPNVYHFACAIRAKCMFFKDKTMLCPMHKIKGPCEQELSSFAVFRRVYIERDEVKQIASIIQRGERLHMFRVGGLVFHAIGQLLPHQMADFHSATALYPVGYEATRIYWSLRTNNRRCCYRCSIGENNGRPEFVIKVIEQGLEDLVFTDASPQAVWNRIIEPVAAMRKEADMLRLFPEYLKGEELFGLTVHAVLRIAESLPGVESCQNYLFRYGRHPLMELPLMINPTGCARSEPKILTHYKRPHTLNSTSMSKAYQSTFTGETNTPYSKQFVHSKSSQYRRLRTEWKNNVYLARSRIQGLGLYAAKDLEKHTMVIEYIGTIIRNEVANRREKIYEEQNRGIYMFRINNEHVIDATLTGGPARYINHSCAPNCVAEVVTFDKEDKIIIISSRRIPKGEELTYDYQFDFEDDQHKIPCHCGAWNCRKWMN
V5-tagged KMT2D fragment (1222-1819): residues 1222-1819 of O14686
UniProt P31749: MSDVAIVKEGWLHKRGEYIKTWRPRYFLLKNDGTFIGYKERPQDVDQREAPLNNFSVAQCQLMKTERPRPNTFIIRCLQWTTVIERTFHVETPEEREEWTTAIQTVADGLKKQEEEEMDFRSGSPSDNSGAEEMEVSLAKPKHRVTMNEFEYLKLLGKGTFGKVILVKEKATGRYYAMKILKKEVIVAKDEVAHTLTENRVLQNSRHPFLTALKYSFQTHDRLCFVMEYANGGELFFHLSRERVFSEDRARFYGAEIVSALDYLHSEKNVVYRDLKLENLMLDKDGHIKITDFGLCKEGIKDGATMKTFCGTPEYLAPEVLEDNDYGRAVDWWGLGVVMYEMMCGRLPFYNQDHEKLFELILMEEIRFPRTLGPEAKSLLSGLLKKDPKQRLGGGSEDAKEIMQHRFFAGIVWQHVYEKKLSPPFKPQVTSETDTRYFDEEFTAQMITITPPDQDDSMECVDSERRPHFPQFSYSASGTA

Legend:
[1] = target: HA-tagged KMT2D (full length, wild type) (UniProt O14686); experiment: HA co-immunoprecipitation from transfected 293T cells, blotted with HA and V5 antibodies
[2] = target: HA-tagged KMT2D (full length, wild type) (UniProt O14686); experiment: co-immunoprecipitation (title of the FIG. 4 legend)
[3] = target: V5-tagged KMT2D fragment (1222-1819) (UniProt O14686); experiment: co-immunoprecipitation in 293T cells of YFP-AKT1 with V5-tagged KMT2D fragments

Row | Substance | binding [1] | binding [2] | binding [3]
1 | V5-tagged AKT1 (from UniProt P31749 1-480) (enzyme) | binds | binds | –
2 | YFP-AKT1 (from UniProt P31749 1-480) (enzyme) | – | – | binds
